Data on four substances can be found in article PMC5102403.

By UniProt entry, the sequences of proteins in these tests, tags left out.
UniProt P97929: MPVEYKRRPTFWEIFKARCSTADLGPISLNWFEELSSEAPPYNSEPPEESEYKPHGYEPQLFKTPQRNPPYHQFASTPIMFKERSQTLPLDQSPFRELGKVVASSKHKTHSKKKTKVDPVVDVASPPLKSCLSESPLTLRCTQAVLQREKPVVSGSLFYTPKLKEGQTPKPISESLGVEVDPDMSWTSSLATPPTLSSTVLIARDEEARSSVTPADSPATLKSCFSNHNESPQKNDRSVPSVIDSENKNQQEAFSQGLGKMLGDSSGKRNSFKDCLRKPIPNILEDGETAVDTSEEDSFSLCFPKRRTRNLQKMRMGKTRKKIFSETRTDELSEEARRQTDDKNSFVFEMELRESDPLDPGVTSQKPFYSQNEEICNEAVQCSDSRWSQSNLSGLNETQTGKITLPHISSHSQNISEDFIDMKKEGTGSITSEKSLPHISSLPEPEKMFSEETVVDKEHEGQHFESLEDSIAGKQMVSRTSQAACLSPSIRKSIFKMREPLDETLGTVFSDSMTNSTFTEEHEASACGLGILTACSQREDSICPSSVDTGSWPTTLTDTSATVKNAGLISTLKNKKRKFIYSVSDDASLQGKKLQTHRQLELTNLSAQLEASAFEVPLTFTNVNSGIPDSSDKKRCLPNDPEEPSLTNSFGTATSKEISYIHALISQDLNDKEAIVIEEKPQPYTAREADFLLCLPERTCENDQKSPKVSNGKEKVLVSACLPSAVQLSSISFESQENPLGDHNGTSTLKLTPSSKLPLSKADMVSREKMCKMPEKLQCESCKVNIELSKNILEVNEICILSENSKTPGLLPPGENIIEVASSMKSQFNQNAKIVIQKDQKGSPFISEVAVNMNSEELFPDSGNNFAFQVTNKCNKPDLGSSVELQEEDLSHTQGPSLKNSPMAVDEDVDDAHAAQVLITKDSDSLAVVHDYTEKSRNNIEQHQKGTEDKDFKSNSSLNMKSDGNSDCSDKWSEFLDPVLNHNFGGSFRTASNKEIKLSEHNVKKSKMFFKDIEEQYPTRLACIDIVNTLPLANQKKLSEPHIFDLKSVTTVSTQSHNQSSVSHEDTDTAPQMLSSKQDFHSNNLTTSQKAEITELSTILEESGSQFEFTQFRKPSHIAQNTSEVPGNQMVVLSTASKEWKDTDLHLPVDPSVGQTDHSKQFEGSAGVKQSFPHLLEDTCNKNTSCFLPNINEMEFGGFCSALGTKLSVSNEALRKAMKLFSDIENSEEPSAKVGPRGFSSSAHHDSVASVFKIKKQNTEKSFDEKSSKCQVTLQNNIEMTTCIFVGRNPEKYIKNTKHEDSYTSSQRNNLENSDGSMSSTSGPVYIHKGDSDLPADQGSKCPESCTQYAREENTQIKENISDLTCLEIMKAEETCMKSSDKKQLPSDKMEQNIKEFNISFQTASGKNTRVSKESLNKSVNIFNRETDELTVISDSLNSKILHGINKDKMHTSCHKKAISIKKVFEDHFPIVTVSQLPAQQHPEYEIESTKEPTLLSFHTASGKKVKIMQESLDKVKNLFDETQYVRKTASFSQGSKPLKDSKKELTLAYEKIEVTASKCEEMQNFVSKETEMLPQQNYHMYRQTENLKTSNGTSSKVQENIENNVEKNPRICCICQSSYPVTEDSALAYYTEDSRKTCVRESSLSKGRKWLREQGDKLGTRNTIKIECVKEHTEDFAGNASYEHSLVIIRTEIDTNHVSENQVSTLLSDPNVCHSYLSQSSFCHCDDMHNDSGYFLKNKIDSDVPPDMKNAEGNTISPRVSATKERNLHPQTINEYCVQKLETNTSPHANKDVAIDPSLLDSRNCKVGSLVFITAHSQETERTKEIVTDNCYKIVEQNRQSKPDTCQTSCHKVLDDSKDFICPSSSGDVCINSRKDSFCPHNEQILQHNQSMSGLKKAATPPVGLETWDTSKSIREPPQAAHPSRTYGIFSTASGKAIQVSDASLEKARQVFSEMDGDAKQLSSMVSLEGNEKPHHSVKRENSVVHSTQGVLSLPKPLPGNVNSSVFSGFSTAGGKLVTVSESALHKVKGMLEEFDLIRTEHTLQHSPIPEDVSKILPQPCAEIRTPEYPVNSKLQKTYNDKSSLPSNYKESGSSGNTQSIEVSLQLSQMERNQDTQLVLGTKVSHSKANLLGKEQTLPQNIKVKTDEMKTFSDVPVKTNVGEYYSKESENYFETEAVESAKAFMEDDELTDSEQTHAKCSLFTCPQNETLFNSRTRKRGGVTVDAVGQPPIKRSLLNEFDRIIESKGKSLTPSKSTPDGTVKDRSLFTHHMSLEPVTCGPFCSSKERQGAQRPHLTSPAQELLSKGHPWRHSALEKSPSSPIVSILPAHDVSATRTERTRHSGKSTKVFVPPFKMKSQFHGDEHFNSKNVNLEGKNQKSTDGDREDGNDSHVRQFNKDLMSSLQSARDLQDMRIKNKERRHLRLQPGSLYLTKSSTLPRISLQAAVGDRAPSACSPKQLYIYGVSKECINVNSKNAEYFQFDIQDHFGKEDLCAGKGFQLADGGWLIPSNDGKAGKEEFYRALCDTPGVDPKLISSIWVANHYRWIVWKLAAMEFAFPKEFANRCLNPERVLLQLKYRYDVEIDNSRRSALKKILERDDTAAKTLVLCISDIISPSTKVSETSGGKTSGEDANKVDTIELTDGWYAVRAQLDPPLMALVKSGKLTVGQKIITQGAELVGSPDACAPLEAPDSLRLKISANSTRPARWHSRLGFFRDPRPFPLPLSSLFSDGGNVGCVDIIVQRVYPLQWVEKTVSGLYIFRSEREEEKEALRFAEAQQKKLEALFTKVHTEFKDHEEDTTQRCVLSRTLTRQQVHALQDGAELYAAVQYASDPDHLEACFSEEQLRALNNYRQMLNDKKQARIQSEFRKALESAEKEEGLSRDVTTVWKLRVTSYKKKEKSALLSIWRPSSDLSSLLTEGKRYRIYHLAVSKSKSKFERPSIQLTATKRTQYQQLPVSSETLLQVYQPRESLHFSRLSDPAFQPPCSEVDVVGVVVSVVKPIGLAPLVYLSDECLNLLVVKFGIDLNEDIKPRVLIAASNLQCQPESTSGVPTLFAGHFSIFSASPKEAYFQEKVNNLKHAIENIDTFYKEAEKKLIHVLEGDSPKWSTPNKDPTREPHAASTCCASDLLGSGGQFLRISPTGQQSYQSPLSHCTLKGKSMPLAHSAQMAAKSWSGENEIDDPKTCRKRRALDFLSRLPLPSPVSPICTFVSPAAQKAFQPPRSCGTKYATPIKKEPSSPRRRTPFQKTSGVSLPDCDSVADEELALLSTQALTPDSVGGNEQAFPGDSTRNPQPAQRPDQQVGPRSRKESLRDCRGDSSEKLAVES
UniProt Q8CGW9: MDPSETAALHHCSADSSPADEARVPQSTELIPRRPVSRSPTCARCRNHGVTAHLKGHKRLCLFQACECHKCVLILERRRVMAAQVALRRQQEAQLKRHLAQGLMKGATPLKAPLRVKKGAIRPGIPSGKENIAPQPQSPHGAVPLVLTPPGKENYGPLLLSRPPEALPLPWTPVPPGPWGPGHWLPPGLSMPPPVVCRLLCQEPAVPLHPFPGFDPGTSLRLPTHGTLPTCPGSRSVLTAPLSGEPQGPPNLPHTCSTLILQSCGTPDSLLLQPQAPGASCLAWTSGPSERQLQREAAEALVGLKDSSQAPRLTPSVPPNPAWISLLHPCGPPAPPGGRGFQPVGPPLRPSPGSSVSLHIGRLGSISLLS
UniProt P51960: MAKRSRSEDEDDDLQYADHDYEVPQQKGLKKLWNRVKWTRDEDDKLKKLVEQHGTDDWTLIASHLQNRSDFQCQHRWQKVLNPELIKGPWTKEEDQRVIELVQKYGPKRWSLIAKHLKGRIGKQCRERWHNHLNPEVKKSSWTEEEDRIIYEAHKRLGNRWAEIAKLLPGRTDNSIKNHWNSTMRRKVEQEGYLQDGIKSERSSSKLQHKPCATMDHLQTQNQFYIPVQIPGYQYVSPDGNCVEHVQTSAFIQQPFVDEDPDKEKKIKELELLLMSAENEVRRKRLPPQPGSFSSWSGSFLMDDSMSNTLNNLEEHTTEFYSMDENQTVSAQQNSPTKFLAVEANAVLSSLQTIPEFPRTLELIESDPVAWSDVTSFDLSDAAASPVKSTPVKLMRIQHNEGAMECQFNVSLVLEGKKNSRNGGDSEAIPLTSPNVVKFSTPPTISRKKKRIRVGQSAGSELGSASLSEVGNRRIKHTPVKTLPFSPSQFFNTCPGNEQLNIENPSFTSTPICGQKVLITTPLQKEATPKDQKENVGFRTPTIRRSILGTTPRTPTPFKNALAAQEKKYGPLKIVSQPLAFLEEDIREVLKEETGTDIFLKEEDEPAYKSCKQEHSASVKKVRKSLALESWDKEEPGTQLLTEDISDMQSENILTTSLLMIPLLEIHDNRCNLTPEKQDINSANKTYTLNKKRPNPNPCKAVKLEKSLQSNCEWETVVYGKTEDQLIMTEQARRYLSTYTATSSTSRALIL

These are yes or no findings as the source states them, for the method shown. Binding seen in cells or lysates may run through a third protein. A yes stands for co-enrichment or nearness to the bait. Other partners may have been found.

Assay [1] concerns the target tagged (Flag-HA) cyclin E1 of knock-in mice, end of the tag not told for the experiment or an about 1:1 mixture of the N- and C-terminally tagged forms (mouse) (UniProt Q61457). Description: affinity purification with mass spectrometry; sequential immunoaffinity purification (anti-Flag M2 agarose, Flag peptide elution, then anti-HA 12CA5 beads) from embryonic brains, adult brains, spleens, thymuses and testes, about 1:1 mixture of organs of N- and C-tagged cyclin E1 knock-in mice; LC-MS/MS, 6-10 runs per organ; mock purifications from wild-type mice subtracted.

Assay [2] has as its target N-terminally Flag- and HA-tagged cyclin E1 (cyclin E1^Ntag knock-in allele) (mouse) (UniProt Q61457). Description: affinity purification with mass spectrometry; sequential anti-Flag and anti-HA purification from spleens and thymuses of cyclin E1 Ntag/Ntag and Cdk2-/-/cyclin E1 Ntag/Ntag mice, iTRAQ labelling and quantitative LC-MS.

Take “Brca2, mouse (from UniProt P97929 1-3329)”: the binding entry in assay [1] is “binds”.

Regarding “Cdk5, mouse (from UniProt P49615 1-292) (enzyme)”, the binding entry in assay [2] and in assay [1] was “binds” in each case.

For “Dmrtc2, mouse (endogenous) (from UniProt Q8CGW9 1-370)”, in assay [1], the binding result is “binds”.

For “Mybl1, mouse (endogenous) (from UniProt P51960 1-751)”, the binding entry in assay [1] was “binds”.
